In PMC3416844:
No constants are given. Whether binding was seen depends on the method and setting. Binding seen in cells or lysates may run through a third protein. Some entries that bind do so weakly or less than the wild type. For some assays here: Tags and fused reporters may be left off the sequences shown. One block for each molecule: values may come before it.

By UniProt entry, the sequences of proteins in these tests, tags left out.
UniProt Q9JMB7: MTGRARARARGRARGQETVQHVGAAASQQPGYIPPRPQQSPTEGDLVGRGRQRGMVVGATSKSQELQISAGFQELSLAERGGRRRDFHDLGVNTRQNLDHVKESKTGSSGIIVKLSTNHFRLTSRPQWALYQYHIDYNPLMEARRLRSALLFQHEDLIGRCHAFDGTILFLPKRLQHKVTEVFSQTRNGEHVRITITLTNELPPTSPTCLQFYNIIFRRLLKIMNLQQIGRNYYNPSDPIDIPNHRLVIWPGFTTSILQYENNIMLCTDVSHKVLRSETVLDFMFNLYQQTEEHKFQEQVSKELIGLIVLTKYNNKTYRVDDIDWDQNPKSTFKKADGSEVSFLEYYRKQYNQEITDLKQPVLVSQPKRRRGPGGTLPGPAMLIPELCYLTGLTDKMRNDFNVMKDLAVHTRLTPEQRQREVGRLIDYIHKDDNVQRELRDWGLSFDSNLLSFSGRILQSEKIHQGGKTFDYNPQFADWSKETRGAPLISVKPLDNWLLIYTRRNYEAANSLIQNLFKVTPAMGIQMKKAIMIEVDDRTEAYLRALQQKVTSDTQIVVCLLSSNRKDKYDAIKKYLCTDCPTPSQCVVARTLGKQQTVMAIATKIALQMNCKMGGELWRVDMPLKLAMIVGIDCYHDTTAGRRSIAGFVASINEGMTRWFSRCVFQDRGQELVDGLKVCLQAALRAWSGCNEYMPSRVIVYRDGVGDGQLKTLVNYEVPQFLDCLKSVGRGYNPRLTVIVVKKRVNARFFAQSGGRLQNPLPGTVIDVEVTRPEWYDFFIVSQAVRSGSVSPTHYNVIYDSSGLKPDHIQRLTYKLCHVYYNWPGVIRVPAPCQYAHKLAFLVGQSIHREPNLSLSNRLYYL
UniProt Q9WTL8: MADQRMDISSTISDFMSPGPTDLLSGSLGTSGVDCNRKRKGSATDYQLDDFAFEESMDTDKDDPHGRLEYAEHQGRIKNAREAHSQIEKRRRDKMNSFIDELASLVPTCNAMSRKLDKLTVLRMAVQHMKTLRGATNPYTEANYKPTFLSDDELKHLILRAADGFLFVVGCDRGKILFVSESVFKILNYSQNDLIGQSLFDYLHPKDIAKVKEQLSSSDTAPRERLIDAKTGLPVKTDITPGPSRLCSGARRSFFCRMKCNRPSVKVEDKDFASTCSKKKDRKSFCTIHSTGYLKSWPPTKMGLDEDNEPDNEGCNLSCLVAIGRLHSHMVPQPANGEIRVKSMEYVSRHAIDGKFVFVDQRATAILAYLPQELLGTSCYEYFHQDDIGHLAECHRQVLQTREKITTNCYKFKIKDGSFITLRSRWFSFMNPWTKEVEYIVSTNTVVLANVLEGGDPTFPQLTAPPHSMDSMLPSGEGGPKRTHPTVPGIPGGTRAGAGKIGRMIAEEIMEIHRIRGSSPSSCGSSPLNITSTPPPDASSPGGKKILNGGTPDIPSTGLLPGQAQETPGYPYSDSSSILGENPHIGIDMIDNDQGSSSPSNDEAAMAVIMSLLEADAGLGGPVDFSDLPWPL
UniProt P63073: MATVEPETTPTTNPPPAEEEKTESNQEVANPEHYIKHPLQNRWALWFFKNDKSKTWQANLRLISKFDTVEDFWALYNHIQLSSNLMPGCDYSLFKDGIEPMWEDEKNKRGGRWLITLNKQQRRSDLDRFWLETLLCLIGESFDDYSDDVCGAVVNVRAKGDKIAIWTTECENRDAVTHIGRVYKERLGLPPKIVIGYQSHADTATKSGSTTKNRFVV

Tests used:
[1] = molecular target: T1, Flag-MVH (mouse VASA homolog, ATP-dependent DEAD-box RNA helicase) (mouse) (UniProt Q61496); assay: co-IP; HEK 293 cells co-transfected with Flag-MVH and Myc-CLOCK and/or Myc-BMAL1; lysed in modified RIPA buffer (50 mM Tris-HCl pH 8.0, 150 mM NaCl, 5 mM EDTA, 15 mM MgCl2, 1% NP-40); Flag-MVH precipitated on M2 Agarose overnight at 4°C; blots with anti-FLAG and anti-MYC
T1 sequence: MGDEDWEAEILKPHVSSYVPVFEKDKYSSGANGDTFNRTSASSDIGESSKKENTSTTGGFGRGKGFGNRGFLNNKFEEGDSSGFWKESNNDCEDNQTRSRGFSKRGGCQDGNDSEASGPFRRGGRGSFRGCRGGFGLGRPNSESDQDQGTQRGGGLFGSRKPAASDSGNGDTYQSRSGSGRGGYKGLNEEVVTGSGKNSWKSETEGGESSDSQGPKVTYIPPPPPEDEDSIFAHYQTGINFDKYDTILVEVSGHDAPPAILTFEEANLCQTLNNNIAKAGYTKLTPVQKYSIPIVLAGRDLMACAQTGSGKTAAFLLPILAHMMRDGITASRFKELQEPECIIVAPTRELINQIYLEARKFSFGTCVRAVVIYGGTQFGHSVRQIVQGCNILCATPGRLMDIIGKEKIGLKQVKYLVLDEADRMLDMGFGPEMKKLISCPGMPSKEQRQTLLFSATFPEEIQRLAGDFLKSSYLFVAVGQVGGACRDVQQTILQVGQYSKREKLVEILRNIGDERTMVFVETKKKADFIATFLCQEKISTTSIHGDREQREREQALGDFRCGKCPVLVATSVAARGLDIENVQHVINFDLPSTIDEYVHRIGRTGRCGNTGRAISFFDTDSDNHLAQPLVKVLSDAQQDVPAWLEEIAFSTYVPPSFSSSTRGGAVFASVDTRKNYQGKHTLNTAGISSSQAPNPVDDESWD

[2] = molecular target: T2, CLOCK (endogenous, mouse seminiferous tubules) (mouse (endogenous in seminiferous tubules)) (UniProt O08785); assay: co-IP; 750 ug of total protein from seminiferous tubules of WT and Bmal1 KO mice; anti-CLOCK antibody; blots of endogenous proteins (Figure S1)
T2 sequence: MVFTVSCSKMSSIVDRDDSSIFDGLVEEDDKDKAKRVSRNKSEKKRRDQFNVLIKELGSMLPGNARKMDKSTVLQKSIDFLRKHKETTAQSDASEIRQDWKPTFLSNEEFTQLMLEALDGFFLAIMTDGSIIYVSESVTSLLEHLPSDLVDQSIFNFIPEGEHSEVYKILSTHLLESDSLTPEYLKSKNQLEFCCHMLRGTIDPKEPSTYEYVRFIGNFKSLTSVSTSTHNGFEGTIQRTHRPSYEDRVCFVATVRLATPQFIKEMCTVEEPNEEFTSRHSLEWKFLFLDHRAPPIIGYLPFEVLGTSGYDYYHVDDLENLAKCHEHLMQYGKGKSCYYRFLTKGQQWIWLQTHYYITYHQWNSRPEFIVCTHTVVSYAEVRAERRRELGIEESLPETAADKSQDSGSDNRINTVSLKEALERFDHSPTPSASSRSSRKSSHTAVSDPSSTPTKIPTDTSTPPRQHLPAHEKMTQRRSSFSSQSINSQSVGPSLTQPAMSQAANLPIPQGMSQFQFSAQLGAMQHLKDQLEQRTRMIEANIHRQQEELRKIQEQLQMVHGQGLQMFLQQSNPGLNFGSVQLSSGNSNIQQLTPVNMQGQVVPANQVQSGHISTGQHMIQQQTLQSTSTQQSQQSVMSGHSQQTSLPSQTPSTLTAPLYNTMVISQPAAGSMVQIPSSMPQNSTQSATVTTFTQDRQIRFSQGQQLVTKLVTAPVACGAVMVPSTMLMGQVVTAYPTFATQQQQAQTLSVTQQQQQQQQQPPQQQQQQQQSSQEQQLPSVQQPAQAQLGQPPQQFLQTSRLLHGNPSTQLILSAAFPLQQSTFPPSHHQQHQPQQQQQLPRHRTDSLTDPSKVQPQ

[3] = molecular target: T2, CLOCK (endogenous, mouse seminiferous tubules) (mouse (endogenous in seminiferous tubules)); assay: co-IP; cytoplasmic and nuclear lysates from seminiferous tubules of Bmal1 WT and Bmal1 KO mice (about 500 µg protein per fraction); anti-CLOCK antibody overnight at 4°C, protein G-agarose; blots of endogenous proteins

Molecule: MIWI (mouse Argonaute/PIWI family RNA-binding protein; endogenous, mouse seminiferous tubules) (from UniProt Q9JMB7 1-862)
binding [2]: binds

B1: Myc-CLOCK (protein, UniProt O08785 1-855)
chain: T2 sequence
binding [1]: binds

B2: MVH (mouse VASA homolog; endogenous, mouse seminiferous tubules) (protein, UniProt Q61496 1-702)
chain: T1 sequence
binding [3]: binds

Results, then the molecule that gave them:

binding [1]: binds
Molecule: Myc-BMAL1 (from UniProt Q9WTL8 1-632)

binding [2]: binds
Molecule: eukaryotic translation initiation factor 4E (EIF4E; endogenous, mouse seminiferous tubules) (from UniProt P63073 1-217)
